This passage reports binding results from article doi:10.1101/2022.12.25.521308.

Amino acid sequences for entries named in this document (tags omitted). Residues count along the entry.
UniProt P28799, residues 18-593: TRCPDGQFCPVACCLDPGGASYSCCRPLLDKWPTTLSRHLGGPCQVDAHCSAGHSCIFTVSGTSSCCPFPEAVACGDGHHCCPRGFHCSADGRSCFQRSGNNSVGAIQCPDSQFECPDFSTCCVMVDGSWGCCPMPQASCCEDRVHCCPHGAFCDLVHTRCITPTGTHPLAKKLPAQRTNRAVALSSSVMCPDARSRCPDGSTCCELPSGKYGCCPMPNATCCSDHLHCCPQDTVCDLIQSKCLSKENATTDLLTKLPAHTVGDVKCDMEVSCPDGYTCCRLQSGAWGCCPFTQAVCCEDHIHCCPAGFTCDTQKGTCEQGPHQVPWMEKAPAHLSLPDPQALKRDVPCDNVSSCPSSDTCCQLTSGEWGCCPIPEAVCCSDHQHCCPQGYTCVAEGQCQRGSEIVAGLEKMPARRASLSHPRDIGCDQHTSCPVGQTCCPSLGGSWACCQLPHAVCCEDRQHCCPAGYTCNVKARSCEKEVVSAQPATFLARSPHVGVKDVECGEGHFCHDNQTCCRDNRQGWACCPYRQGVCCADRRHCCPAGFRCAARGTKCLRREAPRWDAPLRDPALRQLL

Results are given in words; binding and its absence hold for the method and conditions named. Binding seen in cells or lysates may run through a third protein. Some binding calls cover weakened binding; strength is not graded here. Sequences can lack the tags named with a protein.

The assay has as its target FLAG-PGRN (progranulin) (UniProt P28799). Briefly: co-IP.

B1: β-glucocerebrosidase (GCase), non-tagged human GBA (enzyme, UniProt P04062 40-536)
chain: ARPCIPKSFGYSSVVCVCNATYCDSFDPPTFPALGTFSRYESTRSGRRMELSMGPIQANHTGTGLLLTLQPEQKFQKVKGFGGAMTDAAALNILALSPPAQNLLLKSYFSEEGIGYNIIRVPMASCDFSIRTYTYADTPDDFQLHNFSLPEEDTKLKIPLIHRALQLAQRPVSLLASPWTSPTWLKTNGAVNGKGSLKGQPGDIYHQTWARYFVKFLDAYAEHKLQFWAVTAENEPSAGLLSGYPFQCLGFTPEHQRDFIARDLGPTLANSTHHNVRLLMLDDQRLLLPHWAKVVLTDPEAAKYVHGIAVHWYLDFLAPAKATLGETHRLFPNTMLFASEACVGSKFWEQSVRLGSWDRGMQYSHSIITNLLYHVVGWTDWNLALNPEGGPNWVRNFVDSPIIVDITKDTFYKQPMFYHLGHFSKFIPEGSQRVGLVASQKNDLDAVALMHPDGSAVVVVLNRSSKDVPLTIKDPAVGFLETISPGYSIHTYLWRRQ
For B1, the binding result is listed as “binds”.
